The other results are listed elsewhere or left out. Repeats are few or missing, and single values can be far off.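 Imaging used 1,536-well plates; nuclei positive for cleaved PARP by antibody were divided by total DNA-stained nuclei to yield the apoptosis fraction. Doses for screening kept most cells viable, and cell lines differ markedly in resting and induced cleaved-PARP levels.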
Assays:
Test in all cases: cleaved PARP positive nuclei fraction relative to DMSO control; melanoma cells; higher = more apoptosis
Conditions in all cases: library dose: low library concentration; 72 h
[1] = test system: CBRC034 (line from a melanoma biopsy)
[2] = test system: COLO792
[3] = test system: COLO800
[4] = test system: COLO829
[5] = test system: G361
[6] = test system: IPC-298
[7] = test system: IST-MEL1
[8] = test system: LB2518-MEL
[9] = test system: LOXIMVI
[10] = test system: MZ2-MEL
[11] = test system: MeWo
[12] = test system: RPMI7951
[13] = test system: RVH-421
[14] = test system: SkMel28
[15] = test system: SkMel30
[16] = test system: SkMel5
[17] = test system: UACC257
[18] = test system: UACC62

Compound	cleaved PARP positive nuclei fraction [1]	cleaved PARP positive nuclei fraction [2]	cleaved PARP positive nuclei fraction [3]	cleaved PARP positive nuclei fraction [4]	cleaved PARP positive nuclei fraction [5]	cleaved PARP positive nuclei fraction [6]	cleaved PARP positive nuclei fraction [7]	cleaved PARP positive nuclei fraction [8]	cleaved PARP positive nuclei fraction [9]	cleaved PARP positive nuclei fraction [10]	cleaved PARP positive nuclei fraction [11]	cleaved PARP positive nuclei fraction [12]	cleaved PARP positive nuclei fraction [13]	cleaved PARP positive nuclei fraction [14]	cleaved PARP positive nuclei fraction [15]	cleaved PARP positive nuclei fraction [16]	cleaved PARP positive nuclei fraction [17]	cleaved PARP positive nuclei fraction [18]
CCc1ccc(CCOc2ccc(CC3SC(=O)NC3=O)cc2)nc1 (stereo unspecified) [pioglitazone] + COc1cc2ncnc(Nc3ccc(Oc4ccccc4)cc3)c2cc1OC [SrcI1] (first compound 2 µM, partner dose 2 µM)	170%	53.5%	97.2%	76.5%	31.6%	130%	87%	61.5%	2830%	114%	27.5%	119%	62.2%	225%	37.4%	68.5%	180%	837%
CN(NC(=O)CC(=O)NN(C)C(=S)c1ccccc1)C(=S)c1ccccc1 + O=C1NC(=O)/C(=C/c2ccc(-c3ccc(F)cc3O)o2)S1 [AS252424] (first compound 0.006 µM, partner dose 1 µM)	328%	104%	126%	148%	45.1%	42.2%	190%	303%	1680%	169%	156%	84.5%	77.5%	167%	26%	98.1%	135%	336%
CCN(CC)CCCCNc1ncc2cc(-c3cc(OC)cc(OC)c3)c(NC(=O)NC(C)(C)C)nc2n1 + Cn1cc(/C=C2\C(=O)Nc3cccnc32)c2ccccc21 [GW441756] (first compound 0.1 µM, partner dose 0.4 µM)	79.1%	54.7%	147%	132%	94.2%	55.6%	52.6%	174%	48.2%		99.4%	87.5%	73.5%	167%	31%	268%	31.3%	57.2%
Cc1cc([N+](=O)[O-])ccc1NS(=O)(=O)c1cc(Cl)ccc1Cl + CC(C)CCN1c2nc(Nc3cc(F)c(O)c(F)c3)ncc2N(C)C(=O)C1C [BID1870] (first compound 1 µM, partner dose 0.2 µM)	206%	204%	104%	190%	78.1%	45.7%	70.6%	222%	70.1%		66.6%	74.4%	61.6%	169%	11.4%	58%	156%	74.6%
CN(C)S(=O)(=O)c1ccc2c(c1)/C(=C/c1cc3c([nH]1)CCCC3)C(=O)N2 + COC(=O)c1sccc1S(=O)(=O)Nc1ccc(Nc2ccccc2)cc1OC [GSK0660] (first compound 0.4 µM, partner dose 1 µM)	97.5%	124%	69.3%	111%	100%	109%	91.9%	78.5%	29.2%	137%	58.5%	86.7%	66.9%	131%	61.2%	62.5%	43.5%	84.1%
COc1ccc(-c2ccc3c(N4CCOCC4)nc(N4C[C@@H](C)O[C@@H](C)C4)nc3n2)cc1CO + Cc1cc([N+](=O)[O-])ccc1NS(=O)(=O)c1cc(Cl)ccc1Cl [FH535] (first compound 0.02 µM, partner dose 1 µM)	101%	170%	145%	239%	41.9%	60.6%	159%	80.3%	49.9%		38.5%	79.8%	112%	201%	48.3%	89.1%	190%	332%
NCC(=O)Nc1ccc(-n2nc(C(F)(F)F)cc2-c2ccc3c(ccc4ccccc43)c2)cc1 + CC(C)CCN1c2nc(Nc3cc(F)c(O)c(F)c3)ncc2N(C)C(=O)C1C [BID1870] (first compound 1 µM, partner dose 0.2 µM)	194%	136%	62.6%	68.9%	112%	29.8%	63.2%	41.1%	39.6%	109%	177%	43.8%	138%	236%	40.1%	29.2%	254%	237%
CN(C)S(=O)(=O)c1ccc2c(c1)/C(=C/c1cc3c([nH]1)CCCC3)C(=O)N2 + COc1ccc(COc2ccc(Cc3cnc(N)nc3N)cc2OC)cc1 [GW2580] (first compound 0.4 µM, partner dose 1 µM)	92.5%	136%	133%	119%	145%	81.6%	85.9%	83.1%	27%	109%	109%	136%	35.5%	94.6%	16%	124%	93.3%	142%
